Our source for the binding signal values is publication PMC7819943, “Rice protein-binding microarrays: a tool to detect cis-acting elements near promoter regions in rice”.

Sequences of proteins named here, by UniProt entry; tags and fusion partners are left off.
UniProt Q0JBA9, entry or part of it: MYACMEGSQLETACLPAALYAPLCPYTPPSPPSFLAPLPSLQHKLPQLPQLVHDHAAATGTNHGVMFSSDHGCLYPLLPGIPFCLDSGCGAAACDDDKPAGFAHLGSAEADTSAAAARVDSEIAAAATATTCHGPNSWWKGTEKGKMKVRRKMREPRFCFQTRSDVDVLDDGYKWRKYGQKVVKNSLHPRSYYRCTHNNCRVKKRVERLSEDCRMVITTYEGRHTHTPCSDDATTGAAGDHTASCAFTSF

The list shows a part of the results.

For the test, the target named is OsWRKY34 (Oryza sativa, UniProt Q0JBA9 1-250). Kind of test: protein-binding microarray (RPBM); PBS, 2% BSA, 51.3 ng/ul salmon testes DNA, 50 uM zinc acetate, 200 nM TF, 25 C, 1 h; high values mean tight binding. As to conditions: protein: recombinant; tags: N-terminal polyhistidine and DsRed monomer fusion (pET32a); label: CyDye5-dUTP incorporated in the synthesized complementary strand; 3' TTTTT single-stranded linker to array surface; dsDNA, one strand shown. The method in brief: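 The binding signal for each feature is its fluorescence intensity in arbitrary units. An Axon 4000B scanner was used to read a custom Agilent array that had been made double-stranded with Cy5-dUTP primer extension, blocked with 2% BSA, incubated at 25 °C for 1 h with 200 nM protein in PBS, 2% BSA, salmon testes DNA and 50 µM zinc acetate, and washed. The protein was an N-terminal polyhistidine–DsRed transcription factor fusion from E. coli BL21-CodonPlus, purified on Ni–NTA.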
“ATGACTCTGAAAATTTTGAGTGTTGTTTCCTTGATTTTTTCGGAGTCACCTAGTGCAG”: the binding signal is 9040 fluorescence intensity (a.u.).

For “GTTGGCTTGCTCTCTCTGTCCCGGGGCCACTGATCTTGGCCGGAGTCACCTAGTGCAG”, the binding signal is 8450 fluorescence intensity (a.u.).

“CATTGGGCGGGCAGTCTATGACCTATGAAAGCTATCAAATCGGAGTCACCTAGTGCAG”: the binding signal is 12400 fluorescence intensity (a.u.).

As for “AAGCGTCATCCTTATCGATCTTTCCATGATTTTTCAAAGACGGAGTCACCTAGTGCAG”, the binding signal was 8380 fluorescence intensity (a.u.).

With “GTGGCTGCGTGTGGTGGCGTTGCACGGCTCGGGTGGGCTCCGGAGTCACCTAGTGCAG”, the binding signal is 8660 fluorescence intensity (a.u.).

Turning to “CACCTGCGCCTCGCATCCTACCTCGCCTGCCGCTTCAATCCGGAGTCACCTAGTGCAG”, the binding signal was 9200 fluorescence intensity (a.u.).

For the sequence “GCCGCCGCCGCCCTCGCCGTTGATTCCGCCGCCCGCCGCGCGGAGTCACCTAGTGCAG”, the binding signal is 9900 fluorescence intensity (a.u.).

With “AACACCAATCACCACGTACGCCGACCAACCCCATCCACCCCGGAGTCACCTAGTGCAG”, the binding signal was 8660 fluorescence intensity (a.u.).

With “CGTTGTACTAACATATGTCGCATACAGTTCTGATTTGTTTCGGAGTCACCTAGTGCAG”, the binding signal is 10100 fluorescence intensity (a.u.).

“TGATATGGTGGGTTTGGACTTGTAGATGGGCATATGTACGCGGAGTCACCTAGTGCAG”: the binding signal was 8220 fluorescence intensity (a.u.).

As to “GCTATTGACATAGTTCATGCTGTCTCGTACTTACATGGATCGGAGTCACCTAGTGCAG”, the binding signal is 9200 fluorescence intensity (a.u.).

In the case of “ATCCATGCTAGCTTGCTCCGTATCTTTGACTTCACATTTACGGAGTCACCTAGTGCAG”, the binding signal was 9090 fluorescence intensity (a.u.).

For “GTGAGCAGGTCAATAGTATGTGTGATTTAGTTTGACCAGGCGGAGTCACCTAGTGCAG”, the binding signal was 11500 fluorescence intensity (a.u.).

As for “CTTTACTTTGCAGCTATTTTGCTTCTGCTTCTTCTTGTTCCGGAGTCACCTAGTGCAG”, the binding signal is 9780 fluorescence intensity (a.u.).

For the sequence “TTTATCAGTTTCATTCTGAATTTCTGACAAGACATGCTAACGGAGTCACCTAGTGCAG”, the binding signal was 8880 fluorescence intensity (a.u.).

With “TATATATGTTTTTTTAATAGAAGTTTTGCATACATTTTTTCGGAGTCACCTAGTGCAG”, the binding signal is 9720 fluorescence intensity (a.u.).

Take “TTCCTGCATGTTTCGGTTGCTAGATTGTTTCCTTGGGCGGCGGAGTCACCTAGTGCAG”: the binding signal was 8480 fluorescence intensity (a.u.).

On to “CCACACCTACCACACTTAAATTTGCCTTATCTATCTACTGCGGAGTCACCTAGTGCAG”, for which the binding signal was 8580 fluorescence intensity (a.u.).

In the case of “GACCATTATGTTAACTTGGATTAGGGGTAGGCTAGAGATTCGGAGTCACCTAGTGCAG”, the binding signal is 11000 fluorescence intensity (a.u.).

With “AGCATTCTTTCTCCTTCGGTCCTTCCTCATACTCACCATTCGGAGTCACCTAGTGCAG”, the binding signal was 9620 fluorescence intensity (a.u.).

For the sequence “AGCAAGCGCTCTAGCTGTTGACTTTAGCCTCCGGCACATACGGAGTCACCTAGTGCAG”, the binding signal is 9100 fluorescence intensity (a.u.).

“CATAGGTTTGCCGTCGGACGCTGCCAATTCCCAGCCTCTCCGGAGTCACCTAGTGCAG”: the binding signal is 8350 fluorescence intensity (a.u.).

Take “ACAGCATATTACTCCTACTACTACGTATACATAGACGCAACGGAGTCACCTAGTGCAG”: the binding signal is 10400 fluorescence intensity (a.u.).

As to “GCGACGCCAACGACTACCCGCGCCGCCGCTACGTCTCCTACGGAGTCACCTAGTGCAG”, the binding signal was 9820 fluorescence intensity (a.u.).

“ATCATCGTTTTTGCTTGCGTCTCTTAATTAAATGCATCCACGGAGTCACCTAGTGCAG”: the binding signal is 9120 fluorescence intensity (a.u.).

For the sequence “ACTGACAGACAGGTAACCATACTCTGTTTTCCCCTGTTCTCGGAGTCACCTAGTGCAG”, the binding signal was 8970 fluorescence intensity (a.u.).

In the case of “GTGGGTTGAGATGATTGTTAGTAACAAAAGTTTAGTAAGACGGAGTCACCTAGTGCAG”, the binding signal was 9940 fluorescence intensity (a.u.).

Regarding “TGGTTGGAGGGATGAGGTCTTATAAGTTAGTTCCACCCTTCGGAGTCACCTAGTGCAG”, the binding signal is 9520 fluorescence intensity (a.u.).

For the sequence “ATCCCCATTGCTAGTATCTCTCTCTCGCTCTCTCTCCGCCCGGAGTCACCTAGTGCAG”, the binding signal was 9690 fluorescence intensity (a.u.).

Take “AATATTCAGTTGTCAGTTACTTGGTTTTCAAGCGAGCTACCGGAGTCACCTAGTGCAG”: the binding signal was 8150 fluorescence intensity (a.u.).

Turning to “GCTCTGGGGTGAGTCTTTCTTTCAATTCCTCGCAACATAGCGGAGTCACCTAGTGCAG”, the binding signal is 9380 fluorescence intensity (a.u.).

In the case of “GATAGGTTGTGTGTGTGCAGTGTGTGTTTATAAGAGGTGACGGAGTCACCTAGTGCAG”, the binding signal is 10200 fluorescence intensity (a.u.).

Consider “ACACTTCCGGCCATATATTTCAACAAATGCAATTCGTCAACGGAGTCACCTAGTGCAG”, for which the binding signal is 8520 fluorescence intensity (a.u.).

“TGATGAATTCCGCGAGTATTACCGTTTGTATTGTGTTTATCGGAGTCACCTAGTGCAG”: the binding signal is 11400 fluorescence intensity (a.u.).

As for “TCCAACTTTTTCCTTGCCTCACAATAGTCTGTGTGATAACCGGAGTCACCTAGTGCAG”, the binding signal is 8760 fluorescence intensity (a.u.).

On to “ACCACCATTTTCCGATGATAACATCACACCACCATTTTACCGGAGTCACCTAGTGCAG”, for which the binding signal is 11600 fluorescence intensity (a.u.).

For “TTAGCCCTTCATCTGCGTGGTGTGTACTGTGAAAAGGGCACGGAGTCACCTAGTGCAG”, the binding signal was 8820 fluorescence intensity (a.u.).

On to “GCGTGTTCTTTTTGTTCCAGCCCCAGGATACGAAGGACTTCGGAGTCACCTAGTGCAG”, for which the binding signal was 8260 fluorescence intensity (a.u.).

Turning to “GCCCGACTTACTATAACATTGATTGTTATGTCACTTGTCTCGGAGTCACCTAGTGCAG”, the binding signal is 8670 fluorescence intensity (a.u.).

As to “CCTTCATTTTTACTAACTTTTTTTTCTTGTCATGTAACAACGGAGTCACCTAGTGCAG”, the binding signal was 8960 fluorescence intensity (a.u.).

Regarding “ATAGGTGTTTCTTTCTATTCATTTGATCCTTATTATTAACCGGAGTCACCTAGTGCAG”, the binding signal was 12600 fluorescence intensity (a.u.).

Take “TCCCCAATTCTCCCGTCCACCGGCCGCGGACCTCGCCGGACGGAGTCACCTAGTGCAG”: the binding signal was 8140 fluorescence intensity (a.u.).

As to “CCCGATTCTTCTCACTACTGCCGACCAGTGTGGGCTACTACGGAGTCACCTAGTGCAG”, the binding signal was 8150 fluorescence intensity (a.u.).

On to “TATCCAATTTTGATTGTCCGTCTTATATGAAATTTTTTTACGGAGTCACCTAGTGCAG”, for which the binding signal is 9350 fluorescence intensity (a.u.).

On to “TTCAAGGTCTGTTCAAGAACATAATTACAATTCTTCCATCCGGAGTCACCTAGTGCAG”, for which the binding signal is 11700 fluorescence intensity (a.u.).

For the sequence “CTTGCCGTGTCCACCGCTGTGCCCATACCAATCCATAGTACGGAGTCACCTAGTGCAG”, the binding signal is 10800 fluorescence intensity (a.u.).

On to “GTCACCTTTGTTCTAGTTTTTAGCATTTTTGTCGTTATGGCGGAGTCACCTAGTGCAG”, for which the binding signal was 11100 fluorescence intensity (a.u.).

In the case of “GACATATATACACCGATCTGATCTGATCCAATCCTTGCTTCGGAGTCACCTAGTGCAG”, the binding signal is 8530 fluorescence intensity (a.u.).

In the case of “TCCTCCCGTGCCGACCATTTGGCGTCTCTCCCTTACTGCCCGGAGTCACCTAGTGCAG”, the binding signal was 12100 fluorescence intensity (a.u.).

Take “AATTAACACCATTTCTCTACCTTGATGCGATCCTTTAAACCGGAGTCACCTAGTGCAG”: the binding signal is 9210 fluorescence intensity (a.u.).

Regarding “ACTCCACATTATGGCCGGCACATTTGTCATACTACCTACTCGGAGTCACCTAGTGCAG”, the binding signal was 9760 fluorescence intensity (a.u.).

As to “GTTTGATTTTTTTTGTCCCCGGTGATTTGATTCAAATTCACGGAGTCACCTAGTGCAG”, the binding signal is 10700 fluorescence intensity (a.u.).

Take “CGTCATGCTCGCCGGATCTGGCCGAGCCACCGCCGTTGTCCGGAGTCACCTAGTGCAG”: the binding signal is 8230 fluorescence intensity (a.u.).

“TATACTTGCGTTATTTCACTATCATGACCGCTGTTTCGCACGGAGTCACCTAGTGCAG”: the binding signal was 10200 fluorescence intensity (a.u.).
